The entries are a selection whose mix differs from that of the whole data set.
Key:
Conditions in all cases: 72 h
HCC1937 [1] = assay: relative cell viability, compound alone, vs DMSO (fraction of DMSO control); higher = less growth inhibition
MDA-MB-231 [2] = assay: as above
HCC1937 [3] = assay: relative cell viability, compound + RSL3, vs DMSO (fraction of DMSO control); higher = less growth inhibition
MDA-MB-231 [4] = assay: as above
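Wherever relative cell viability, compound + RSL3, vs DMSO is given: breast cancer cell viability read out with the CCK-8 kit after co-treatment of each compound with the ferroptosis inducer RSL3.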
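Wherever relative cell viability, compound alone, vs DMSO is given: viability read out with the CCK-8 kit in 96-well plates, screening a set of 303 compounds acting on lipid metabolism targets.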

SMILES	relative cell viability (HCC1937 [1])	relative cell viability (MDA-MB-231 [2])	relative cell viability (HCC1937 [3])	relative cell viability (MDA-MB-231 [4])
Cc1c(C(=O)NN2CCCCC2)nn(-c2ccc(Cl)cc2Cl)c1-c1ccc(I)cc1	0.722	0.899	–	–
Cc1c(C(=O)NN2CCCCC2)nn(-c2ccc(Cl)cc2Cl)c1-c1ccc(I)cc1 + COC(=O)c1ccc([C@H]2c3[nH]c4ccccc4c3C[C@H](C(=O)OC)N2C(=O)CCl)cc1 [RSL3]	–	–	0.416	0.503
